{"source": "PubChem BioAssay AID504774 (Drosophila RNAi Screening Center, 2011)", "aim": "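Genes required for cells to withstand methyl methanesulphonate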 (primary screen)", "system": "Drosophila Kc167 cells", "reagent": "long dsRNA against Drosophila genes, about 0.25 µg dsRNA per well", "time to read-out": "about 6 days: 3 days knock-down, then 3 days with or without MMS", "challenge": "methyl methanesulphonate 0.004% (w/v) for 3 days after knock-down", "detection": "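Viability in wells given MMS, read as ATP luminescence, normalised by quantiles plate by plate and averaged across replicates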", "reading the numbers": "mean viability with MMS and viability with MMS: higher = more surviving cells after MMS", "note": "In all, the deposit lists about 23,000 reagents; this is a random part of those with a known target gene and a result. 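Values are quantile-normalised luminescence on an arbitrary scale; higher means more cells surviving MMS.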 Names joined by + are all predicted targets of the reagent. Not all columns of the deposit are shown. No sequences are given here."}
{"target gene": "Ufl1", "amplicon": "DRSC12527", "mean viability with MMS": 3.49e6, "viability with MMS, replicate 1": 3.97e6}
{"target gene": "CG33969", "amplicon": "DRSC11777", "mean viability with MMS": 3.59e6, "viability with MMS, replicate 1": 4.10e6}
{"target gene": "TfIIA-S-2", "amplicon": "DRSC17791", "mean viability with MMS": 3.67e6, "viability with MMS, replicate 1": 4.17e6}
{"target gene": "RabX4", "amplicon": "DRSC22189", "mean viability with MMS": 3.62e6, "viability with MMS, replicate 1": 4.05e6}
{"target gene": "CG30110", "amplicon": "DRSC05686", "mean viability with MMS": 3.46e6, "viability with MMS, replicate 1": 4.04e6}
{"target gene": "anchor", "amplicon": "DRSC10861", "mean viability with MMS": 3.62e6, "viability with MMS, replicate 1": 4.17e6}
{"target gene": "Mgat4a", "amplicon": "DRSC09326", "mean viability with MMS": 3.52e6, "viability with MMS, replicate 1": 4.05e6}
{"target gene": "Mgat4a", "amplicon": "DRSC11070", "mean viability with MMS": 3.71e6, "viability with MMS, replicate 1": 4.31e6}
{"target gene": "TBC1D16", "amplicon": "DRSC02841", "mean viability with MMS": 3.49e6, "viability with MMS, replicate 1": 3.85e6}
{"target gene": "CG31784", "amplicon": "DRSC01574", "mean viability with MMS": 3.59e6, "viability with MMS, replicate 1": 4.15e6}
{"target gene": "Meltrin", "amplicon": "DRSC16274", "mean viability with MMS": 3.61e6, "viability with MMS, replicate 1": 4.19e6}
{"target gene": "Meltrin", "amplicon": "DRSC21693", "mean viability with MMS": 3.44e6, "viability with MMS, replicate 1": 3.87e6}
{"target gene": "CG11357", "amplicon": "DRSC08183", "mean viability with MMS": 3.79e6, "viability with MMS, replicate 1": 4.50e6}
{"target gene": "CG33191 + Pif1B", "amplicon": "DRSC12706", "mean viability with MMS": 3.49e6, "viability with MMS, replicate 1": 3.97e6}

In a second layout: results already given
TBC1D16 [DRSC02841] | mean viability with MMS: 3.49e6; viability with MMS, replicate 1: 3.85e6
CG31784 [DRSC01574] | mean viability with MMS: 3.59e6; viability with MMS, replicate 1: 4.15e6
Meltrin [DRSC16274] | mean viability with MMS: 3.61e6; viability with MMS, replicate 1: 4.19e6
Meltrin [DRSC21693] | mean viability with MMS: 3.44e6; viability with MMS, replicate 1: 3.87e6
CG11357 [DRSC08183] | mean viability with MMS: 3.79e6; viability with MMS, replicate 1: 4.50e6

The results go on.
{"target gene": "CG4066", "amplicon": "DRSC15541", "mean viability with MMS": 3.66e6, "viability with MMS, replicate 1": 4.10e6}
{"target gene": "PolD1", "amplicon": "DRSC11138", "mean viability with MMS": 3.29e6, "viability with MMS, replicate 1": 3.72e6}
{"target gene": "Ctu2", "amplicon": "DRSC02024", "mean viability with MMS": 3.53e6, "viability with MMS, replicate 1": 3.93e6}
{"target gene": "CG30031 + deltaTry + CG30025 + 1 more", "amplicon": "DRSC21262", "mean viability with MMS": 3.47e6, "viability with MMS, replicate 1": 4.00e6}
{"target gene": "Nab2", "amplicon": "DRSC14158", "mean viability with MMS": 3.35e6, "viability with MMS, replicate 1": 3.81e6}
{"target gene": "to", "amplicon": "DRSC17086", "mean viability with MMS": 3.39e6, "viability with MMS, replicate 1": 3.76e6}
{"target gene": "CG8851", "amplicon": "DRSC00718", "mean viability with MMS": 3.65e6, "viability with MMS, replicate 1": 4.27e6}
{"target gene": "Cyp6a16Psi (retired record)", "amplicon": "DRSC03307", "mean viability with MMS": 3.52e6, "viability with MMS, replicate 1": 3.98e6}
{"target gene": "frma", "amplicon": "DRSC18297", "mean viability with MMS": 3.75e6, "viability with MMS, replicate 1": 4.19e6}
{"target gene": "GstD11", "amplicon": "DRSC15251", "mean viability with MMS": 3.42e6, "viability with MMS, replicate 1": 3.92e6}
{"target gene": "Acox3", "amplicon": "DRSC03251", "mean viability with MMS": 3.55e6, "viability with MMS, replicate 1": 3.94e6}
{"target gene": "CG3842", "amplicon": "DRSC18326", "mean viability with MMS": 3.65e6, "viability with MMS, replicate 1": 3.98e6}
{"target gene": "CG7829", "amplicon": "DRSC16322", "mean viability with MMS": 3.63e6, "viability with MMS, replicate 1": 4.06e6}
{"target gene": "CG11409", "amplicon": "DRSC18579", "mean viability with MMS": 3.23e6, "viability with MMS, replicate 1": 3.59e6}
{"target gene": "Lpt", "amplicon": "DRSC04291", "mean viability with MMS": 3.41e6, "viability with MMS, replicate 1": 3.75e6}
{"target gene": "Lpt", "amplicon": "DRSC04515", "mean viability with MMS": 3.38e6, "viability with MMS, replicate 1": 3.69e6}
{"target gene": "Ir41a", "amplicon": "DRSC04730", "mean viability with MMS": 3.50e6, "viability with MMS, replicate 1": 4.03e6}
{"target gene": "Ir41a", "amplicon": "DRSC04875", "mean viability with MMS": 3.74e6, "viability with MMS, replicate 1": 4.33e6}
{"target gene": "pk", "amplicon": "DRSC06178", "mean viability with MMS": 3.69e6, "viability with MMS, replicate 1": 4.09e6}
{"target gene": "pk", "amplicon": "DRSC07664", "mean viability with MMS": 3.57e6, "viability with MMS, replicate 1": 4.08e6}
{"target gene": "pk", "amplicon": "DRSC22156", "mean viability with MMS": 3.57e6, "viability with MMS, replicate 1": 4.06e6}
